According to paper PMC10163288:
Some of the results follow.

B1: il2ra_site1_1z92_sap_15_mot_e1ae4cb039f7b6770b9307eb87230ce5_0001_000000230_0001_37_51_H_._22eb9e4dad251339c268dc73c902281b_0001_0001_0000100004_0000001_0_0001_ … (protein)
chain: SSSSSSERDARIVVELAVRAAGLSEEQQEELERLAKELLEEGYSFEEIARILDKLALELGSSSSS
B2: il2ra_site2_3nfp_sap_18_mot_HHH_b1_04644_af2_000000261_0001_42_57_H_._HHH_b2_04983_af2_0001_0000400023_0000001_0_0001 (protein)
chain: SSSSSDDHELYERVVELLKRAAHIEDEEEVRQLLEEARELAEEAGNPVLRRSVEFVAKSLSSSSS
B3: il2ra_site2_2erj_sap_24_mot_HHH_b1_06697_000000025_0001_41_54_H_._HHH_b1_01777_0001_0000600011_0000001_1_0001_af2pred_0001_af2pred (protein)
chain: SSSSSSSSEERVRELLEEAKHVEDQKRAFELLQEADKIALENNDPEAQQLVQKLARELSSSSSSS
B4: il2ra_site2_3nfp_sap_32_mot_HHH_b2_03211_af2_000000182_0001_18_34_H_._0c3bf8cb9d93094680b22e24baf1e485_0001_0001_0000200030_0000001_0_0001 (protein)
chain: SSSSSRIEEELRKMVEQAIEVARSKNDPELVRRLEELLEALEETGDPRYALEAYALARELSSSSS
B5: il2ra_site1_1z92_sap_15_mot_HHH_b1_04602_000000153_0001_1_19_H_._HHH_b2_06740_0001_0000300030_0000001_0_0001 (protein)
chain: TLAELLREELEEDPRFEEELARMVLEDAGGDPRMAKKFLKRMARKAGIPPEVLERLEEIVEELVR
B6: il2ra_site1_1z92_sap_21_mot_HHH_b1_08214_000000261_0001_20_36_H_._HHH_b1_00191_0001_0000100004_0000001_0_0001_af2pred_0001_af2pred (protein)
chain: SSSSDERLKRSLRIAVENAVKVAGLSEEQKEELEELAEELAERGVDFLEALQIVNELALELSSSS
B7: il2ra_site1_3nfp_normal_mot_HHH_b1_05099_af2_000000125_0001_40_58_H_._4a27984d7eb86086e033fe6076e0d033_0001_1_0001_0000400024_0000001_0 (protein)
chain: SARKLLRKLKELGVLSPEELQLIYRVLREAIRNKDPELARELLELLELAEEGDPEAEERLRELLR
B8: il2ra_site2_3nfp_normal_mot_HHH_b2_08245_000000023_0001_41_55_H_._72a79b14e1a0e827e78e129a6f5f8f0c_0001_1_0001_0000100007_0000001_0 (protein)
chain: DAELSNRIYELAERGDPVAFLLFALLAEVLYKGDPELRRLLEEALEALERGNPEEAEEIVKEALR
B9: il2ra_site1_2b5i_normal_mot_HHH_b2_07267_000000116_0001_43_56_H_._2c3364830c66fee1b0e8427e812e8af0_0001_af2_0001_0000300012_0000001_0 (protein)
chain: DEEHLERLLRIALELGNIERYAKHLFRMLAIAAGDPEEAEEYLEKLLEAAGVPPEVIEEILKEAK
B10: il2ra_site1_2b5i_sap_8_mot_HHH_b2_04131_000000150_0001_1_16_H_._HHH_b2_08022_af2_0001_0000200019_0000001_0_0001_af2pred_dldesign_0_af2pred (protein)
chain: SSSSSAAEPRALFLKAEEAHKAGKDEEALELLKKALELAEARKMHSLARAIELAIKDLLESSSSS
B11: il2ra_site1_3nfp_normal_mot_HHH_b1_01080_af2_000000019_0001_3_16_H_._3b61d7363a4279ee81a7dec5202e1ad9_0001_0001_0000200011_0000001_0 (protein)
chain: NFVERLIEEIEKRDEELSKLLREVLELAEKKQDPRLFELLIKALALIELGNPEEAKKLLEEAAKR
B12: il2ra_site2_2erj_normal_mot_HHH_b1_01851_000000011_0001_43_56_H_._HHH_b1_04282_0001_0000200018_0000001_0 (protein)
chain: SSSSDEEEERIEELAEEAKQITDLRRVFELANEMLRIASERRDQELVELVIELLEEIFELNSSSS
B13: il2ra_site1_3nfp_sap_15_mot_eb5a5eebac1e5153f932cc6c3f4b2787_0001_af2_000000065_0001_18_33_H_._208e20f37e868f9baeee1912733167ef_0001_af2_0001_0000500015_0000001 … (protein)
chain: SSSSSLEKLFEIFEKAARLFLEQGNPEAAKRLVEAAIEDARKAGDEELLELLEELLEEVRRSSSS
B14: il2ra_site2_2erj_normal_mot_HHH_b1_01555_af2_000000123_0001_22_39_H_._HHH_b2_00121_af2_0001_0000200012_0000001_0 (protein)
chain: SSSSSEEEVREVLKEAEEAYKEGDLEAVFELLDEALHLASENNDDEAERLVFEFVEELQNWSSSS
B15: il2ra_site2_3nfp_sap_14_mot_3824cfb560b92ee870597236e80092b0_0001_000000100_0001_16_33_H_._12b039b53749288c6b85c509ede14276_0001_af2_0001_0000300012_0000001_0_0 … (protein)
chain: SSSSDVEERVEELLERAEELYEKGNPREVKRILAEASRLAWENNNEELFMKIAEAALRLFSSSSS
B16: il2ra_site1_3nfp_normal_mot_HHH_b1_05070_af2_000000282_0001_43_57_H_._HHH_b2_01397_af2_0001_0000200011_0000001_0_af2pred_0001_af2pred_swapped (protein)
chain: SSSSNAIELFERLVRRVVELLKKRGDPEAAERFVERAIRDAEKAGDEELVRRLEELLEEIRSSSS
B17: il2ra_site1_2b5i_normal_mot_HHH_b2_04910_000000118_0001_1_19_H_._HHH_b2_07342_0001_0000200023_0000001_1 (protein)
chain: SSSSSEEALELFHRADEADREGDHEEAQELAEEALEIAERENSKSLFRMIRAALRAIRLAGSSSS
B18: il2ra_site2_2erj_normal_mot_HHH_b2_01204_af2_000000056_0001_19_34_H_._HHH_b1_02574_af2_0001_0002000032_0000001_0 (protein)
chain: SSSSSEELRELYELLVEILHAITNGDKEEAEKLLERVEELAEKLQSESVREVVEFLEKLLRSSSS

The binders below were run against il2ra, P01589 (assay: yeast display titration).

Row | Binder | apparent Kd
1 | B1 | inactive: no binding seen
2 | B2 | inactive: no binding seen
3 | B3 | inactive: no binding seen
4 | B4 | inactive: no binding seen
5 | B5 | inactive: no binding seen
6 | B6 | inactive: no binding seen
7 | B7 | inactive: no binding seen
8 | B8 | inactive: no binding seen
9 | B9 | inactive: no binding seen
10 | B10 | inactive: no binding seen
11 | B11 | inactive: no binding seen
12 | B12 | inactive: no binding seen
13 | B13 | inactive: no binding seen
14 | B14 | inactive: no binding seen
15 | B15 | inactive: no binding seen
16 | B16 | inactive: no binding seen
17 | B17 | inactive: no binding seen
18 | B18 | inactive: no binding seen

Quoted from the entries so far for reference:
Row | Binder | apparent Kd
4 | B4 | inactive: no binding seen
5 | B5 | inactive: no binding seen
6 | B6 | inactive: no binding seen
7 | B7 | inactive: no binding seen
